# Positions count from the first letter of the chain named. No constants are given. Whether binding was seen depends on the method and setting. Some entries that bind do so weakly or less than the wild type.
# The chains behind the UniProt entries cited, without tags or fusion partners. Residues count along the entry.
# UniProt P08581, residues 25-932: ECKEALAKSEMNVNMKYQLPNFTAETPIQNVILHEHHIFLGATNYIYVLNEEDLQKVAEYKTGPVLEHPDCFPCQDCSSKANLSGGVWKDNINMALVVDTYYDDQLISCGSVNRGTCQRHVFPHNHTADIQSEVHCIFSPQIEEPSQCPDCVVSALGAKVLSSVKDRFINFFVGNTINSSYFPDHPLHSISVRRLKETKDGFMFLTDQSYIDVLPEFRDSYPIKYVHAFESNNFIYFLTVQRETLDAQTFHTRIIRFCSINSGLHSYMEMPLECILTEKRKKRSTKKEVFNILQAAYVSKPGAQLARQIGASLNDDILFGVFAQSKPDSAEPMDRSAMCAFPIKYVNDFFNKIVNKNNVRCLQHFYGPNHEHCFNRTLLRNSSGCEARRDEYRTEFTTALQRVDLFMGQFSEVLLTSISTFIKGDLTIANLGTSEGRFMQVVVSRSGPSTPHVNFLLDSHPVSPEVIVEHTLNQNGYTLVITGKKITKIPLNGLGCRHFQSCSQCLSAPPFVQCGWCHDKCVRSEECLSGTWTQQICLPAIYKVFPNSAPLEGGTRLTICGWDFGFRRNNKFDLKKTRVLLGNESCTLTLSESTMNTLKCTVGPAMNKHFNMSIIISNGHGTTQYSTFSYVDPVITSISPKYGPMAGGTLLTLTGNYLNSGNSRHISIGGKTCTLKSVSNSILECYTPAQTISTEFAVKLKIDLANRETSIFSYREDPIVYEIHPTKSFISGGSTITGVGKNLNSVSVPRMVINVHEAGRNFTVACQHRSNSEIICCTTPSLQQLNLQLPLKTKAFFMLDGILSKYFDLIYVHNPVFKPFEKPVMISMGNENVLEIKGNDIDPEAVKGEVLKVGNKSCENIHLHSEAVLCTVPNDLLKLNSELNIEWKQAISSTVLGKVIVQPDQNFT
# B1: VH4/Vk2 (antibody, V domains shown)
# VH: QVQLVQSGAEVKKPGSSVKVSCQGSGYSFPTHWITWVRQAPGQGLEWMGTIDPTDSYNFYGPSFQGRVTITADSSTSTAYMELSSLRSEDTAMYYCARDGNYYDSRGYYYDTFDMWGQGTLVTVSS
# VL: DIQMTQSPSSLSASVGDRVTITCRASQGISTYLAWYQQKPGKAPKLLIYSASTLESGVPSRFSGSGSGTDFTLTISSLQPEDFATYYCQQADSFPLTFGGGTKVEIK
# notes: CDR-grafted variant of the IgG1-based anti-cMet antibody 1E4; also called anti-cMet candidate antibody VH4/Vk2
# B2: VH0/Vk2 (antibody, V domains shown)
# VH: QVQLVQSGAEVKKPGESLRISCQGSGYSFPTHWITWVRQMPGKGLEWMGTIDPTDSYNFYGPSFQGHVTISADSSSSTAYLQWSSLKASDTAMYYCARDGNYYDSRGYYYDTFDMWGQGTLVTVSS
# VL: B1 VL
# notes: also called anti-cMet candidate antibody VH0/Vk2
# B3: VH5/Vk2 (antibody, V domains shown)
# VH: B1 VH with M93V
# VL: B1 VL
# notes: CDR-grafted variant of the IgG1-based anti-cMet antibody 1E4; also called anti-cMet candidate antibody VH5/Vk2
# B4: VH6/Vk2 (antibody, V domains shown)
# VH: B1 VH with Q23K, G24A, S74K, M93V
# VL: B1 VL
# notes: CDR-grafted variant of the IgG1-based anti-cMet antibody 1E4; also called anti-cMet candidate antibody VH6/Vk2
# Target: T1, human c-Met antigen (Sino Biological) (human, UniProt P08581 25-932)
# T1 construct: Bought antigen used as the analyte in SPR; also called hepatocyte growth factor receptor; HGFR
# Experiment: SPR (BIACORE T200)
row,binding,Binder
1,binds,B1
2,binds,B2
3,binds,B3
4,binds,B4

# — patent US20200271647A1 (SEOUL NATIONAL UNIVERSITY HOSPITAL, published 2020)
